# Reference: publication PMC12040169 (PLOS Biology, 2025)
# The list shows a part of the results.
# System: T1, CTL2-GFP (C. trachomatis L2/434/Bu, GFP-expressing)
# T1 construct: L2/434/Bu, GFP-expressing
# Design: species or system HeLa; Intracellular C. trachomatis growth in HeLa cells, bulk GFP fluorescence relative to DMSO
# Settings: bulk GFP, single well; 28.5 h, 10 µM; inhibitor
row,SMILES,% of control remaining [%]
1,Cc1ncsc1C(=O)N1CCC(c2cccc(Cc3ccc(C(F)(F)F)cc3)n2)CC1 [CBK286216],81.2533
2,Cc1ccc(S(=O)(=O)Oc2c(C=C3C(=O)CC(C)(C)CC3=O)[nH]c3ccccc23)cc1 [CBK263464],118.346
3,CC(Cc1ccc(N(C)C)cc1)NC(=O)C1CN(S(=O)(=O)c2ccc(F)cc2)C1 (stereo not drawn) [CBK285942],118.704
4,COC(=O)c1ccc(NC(=O)c2oc3ccc(Br)cc3c2C)cc1 [CBK296758],119.74
5,O=C(c1ccccc1)c1ccccc1-n1nccn1 [CBK013849],85.6094
6,Cc1onc(-c2ccccc2)c1C(=O)N1CCC(C(N)=O)CC1 [CBK158721],117.359
7,Cc1nn2cc(CNC(=O)C3Cc4ccccc4O3)nc2s1 (stereo not drawn) [CBK307498],108.64
8,COC(=O)c1ccccc1NC(=O)C1CCCN(S(=O)(=O)c2cc(Cl)ccc2Cl)C1 (stereo not drawn) [CBK268797],99.8838
9,CCOc1cccc(-c2cncc(N3CCCC3CO)n2)c1 (stereo not drawn) [CBK066004],121.988
10,Cc1cc2nc(SCCO)[nH]c2cc1C [CBK027546],121.292
11,CC(CNC(=O)Cc1ccc(C(F)(F)F)cc1[N+](=O)[O-])N1CCc2ccccc2C1 (stereo not drawn) [CBK298292],161.328
12,CCc1nc2ccc(C(=O)Nc3ccc(NC(C)=O)cc3)cn2c1N(C)C(=O)Cc1ccccc1 [CBK146855],122.604
13,NC(=O)c1ccccc1/N=C/c1ccc([N+](=O)[O-])o1 [CBK261675],44.7967
14,O=C(CCn1c(CO)nc2ccccc21)c1ccccc1 [CBK296947],119.682
15,COC(=O)C1=C(C)N(c2ccc(C(=O)O)cc2)C(=O)NC1c1cccc(OC)c1OC (stereo not drawn) [CBK295355],153.944
16,Cn1cccc1C(=O)OCC(=O)N1CCCCC1 [CBK305903],113.419
17,Fc1ccc(CCNc2ccc3nncn3n2)cc1 [CBK287909],106.074
18,CC(NC(=O)C1CCN(Cc2cccs2)CC1)c1ccc(F)cc1 (stereo not drawn) [CBK148041],171.19
19,O=C1CC(C(=O)N2CCc3ncc(Cl)cc3C2)c2ccccc2N1 (stereo not drawn) [CBK284976],132.624
20,Cc1ncncc1C(=O)N1CCc2sccc2C1c1ccccc1 (stereo not drawn) [CBK281386],94.8147

row,SMILES,% of control remaining [%]
1,Cc1ccn2c(CN3CCC(n4nc(C)cc4C)CC3)c(C)nc2c1 [CBK281616],138.792
2,OCCOc1cccc(-c2nnco2)c1 [CBK000033],122.453
3,Cc1oc2[nH]c(CN(C)CCOc3ccc(Cl)cc3)nc(=N)c2c1C(=O)O [CBK279463],138.173
4,CC1CCCCN1C(=O)CCn1c(-c2cccnc2)cc2cccnc21 (stereo not drawn) [CBK282692],120.473
5,CN1CCN(CC(=O)Nc2sc3c(c2C(=O)NCc2ccccc2)CCCC3)CC1 [CBK268207],105.587
6,CC(CNC(=O)c1cccn(CC(=O)Nc2ccc(F)cc2)c1=O)N1CCCCCC1 (stereo not drawn) [CBK286123],119.363
7,O=C(O)c1cccc(NC(=O)c2c(C(=O)O)cccc2[N+](=O)[O-])c1 [CBK261096],100
8,COc1cc(C(O)CNC(=O)c2cnc(-c3ccc(F)cc3)c(-c3cccc(N)c3)c2)ccc1O (stereo not drawn) [CBK038032],68.1485
9,O=C1C2C(c3ccccc3Cl)OC3(C(=O)c4ccccc4C3=O)C2C(=O)N1c1ccc([N+](=O)[O-])cc1 (stereo not drawn) [CBK262425],120.901
10,COc1cc(/C=C2\C=C(c3ccc(-c4ccccc4)cc3)OC2=O)ccc1O [CBK265594],100
11,COc1ccc(NC(=O)/C(=C\c2ccc3c(c2)OCO3)NC(=O)c2ccco2)cc1 [CBK263607],100
12,Cc1ccc(-c2noc(CN(C(=O)CCc3ccccc3)C(C)C)n2)cc1 [CBK269313],105.36
13,O=C(NC(Cc1cccs1)c1nccs1)c1cc[nH]n1 (stereo not drawn) [CBK285052],143.329
14,CCN(CC)CCNC(=O)c1ccc(NS(=O)(=O)c2cc(C(=O)O)ccc2OC)cc1 [CBK296962],132.224
15,CN(C)CCN(C)C(=O)c1ccc(-c2ccc3c(c2)OCO3)nc1N(C)C [CBK106072],99.0967
16,CCCCN1CCC(C(=O)Oc2ccc(OC)c3ccccc23)CC1 [CBK122682],87.3711
17,COc1cc(NC(=O)Nc2ccc3ccc(Cl)nc3n2)cc(OC)c1OC [CBK115933],116.071
18,N#Cc1ccccc1N1CCN(c2cncc(-c3cccc4cccnc34)n2)CC1 [CBK037366],167.912
19,Nc1ncc(-c2ccc(C(=O)N3CCOCC3)cc2)cc1C(=O)Nc1ccc(C(F)(F)F)cc1 [CBK160204],82.4344

# A run of entries of the results above, for reference:
row,SMILES,% of control remaining [%]
9,CCOc1cccc(-c2cncc(N3CCCC3CO)n2)c1 (stereo not drawn) [CBK066004],121.988
10,Cc1cc2nc(SCCO)[nH]c2cc1C [CBK027546],121.292
11,CC(CNC(=O)Cc1ccc(C(F)(F)F)cc1[N+](=O)[O-])N1CCc2ccccc2C1 (stereo not drawn) [CBK298292],161.328
12,CCc1nc2ccc(C(=O)Nc3ccc(NC(C)=O)cc3)cn2c1N(C)C(=O)Cc1ccccc1 [CBK146855],122.604
13,NC(=O)c1ccccc1/N=C/c1ccc([N+](=O)[O-])o1 [CBK261675],44.7967
14,O=C(CCn1c(CO)nc2ccccc21)c1ccccc1 [CBK296947],119.682
15,COC(=O)C1=C(C)N(c2ccc(C(=O)O)cc2)C(=O)NC1c1cccc(OC)c1OC (stereo not drawn) [CBK295355],153.944
16,Cn1cccc1C(=O)OCC(=O)N1CCCCC1 [CBK305903],113.419
